Results as given in paper PMC12548386.
Results are given in words; binding and its absence hold for the method and conditions named. Binding seen in cells or lysates may run through a third protein. Some binding calls cover weakened binding; strength is not graded here. For some assays here: Tags and fused reporters may be left off the sequences shown.

Sequences of proteins named here, by UniProt entry; tags and fusion partners are left off.
UniProt P52294: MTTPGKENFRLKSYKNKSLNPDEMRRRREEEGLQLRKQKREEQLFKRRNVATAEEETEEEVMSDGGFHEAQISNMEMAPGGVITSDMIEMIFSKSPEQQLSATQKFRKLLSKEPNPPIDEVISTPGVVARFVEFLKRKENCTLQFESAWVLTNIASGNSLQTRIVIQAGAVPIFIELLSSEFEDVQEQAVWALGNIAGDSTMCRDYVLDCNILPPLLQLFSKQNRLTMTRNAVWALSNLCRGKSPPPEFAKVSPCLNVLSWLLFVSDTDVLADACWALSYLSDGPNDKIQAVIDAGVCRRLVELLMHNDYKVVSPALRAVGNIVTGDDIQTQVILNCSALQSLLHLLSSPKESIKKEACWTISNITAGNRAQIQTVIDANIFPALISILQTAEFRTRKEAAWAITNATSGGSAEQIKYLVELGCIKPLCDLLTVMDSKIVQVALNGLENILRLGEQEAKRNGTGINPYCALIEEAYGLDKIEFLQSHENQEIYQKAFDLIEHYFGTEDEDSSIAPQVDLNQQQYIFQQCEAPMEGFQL
UniProt Q14974: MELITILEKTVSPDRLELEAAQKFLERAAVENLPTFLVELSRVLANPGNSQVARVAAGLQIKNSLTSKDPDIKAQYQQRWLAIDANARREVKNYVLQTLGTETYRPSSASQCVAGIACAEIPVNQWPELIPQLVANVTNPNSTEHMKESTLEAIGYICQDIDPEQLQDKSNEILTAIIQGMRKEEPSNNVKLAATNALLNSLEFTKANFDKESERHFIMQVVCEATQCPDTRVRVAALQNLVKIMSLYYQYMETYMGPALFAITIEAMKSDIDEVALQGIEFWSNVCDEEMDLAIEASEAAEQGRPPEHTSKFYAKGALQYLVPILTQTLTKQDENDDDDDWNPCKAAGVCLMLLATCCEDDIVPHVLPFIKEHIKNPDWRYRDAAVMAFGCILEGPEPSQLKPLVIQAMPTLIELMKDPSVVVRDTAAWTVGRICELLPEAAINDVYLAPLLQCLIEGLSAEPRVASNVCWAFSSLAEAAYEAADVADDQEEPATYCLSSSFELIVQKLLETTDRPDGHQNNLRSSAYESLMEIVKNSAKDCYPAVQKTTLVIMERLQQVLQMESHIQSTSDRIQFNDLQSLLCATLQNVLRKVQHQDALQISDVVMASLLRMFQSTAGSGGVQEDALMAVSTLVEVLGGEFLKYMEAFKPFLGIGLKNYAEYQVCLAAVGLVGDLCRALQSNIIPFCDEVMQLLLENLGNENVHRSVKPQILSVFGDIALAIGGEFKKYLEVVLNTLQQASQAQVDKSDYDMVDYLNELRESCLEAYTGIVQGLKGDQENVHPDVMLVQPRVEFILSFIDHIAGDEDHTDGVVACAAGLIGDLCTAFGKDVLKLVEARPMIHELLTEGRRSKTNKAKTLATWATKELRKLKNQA

B1: IFN regulatory factor 9, Q00978 1-393 (protein)
chain: MASGRARCTRKLRNWVVEQVESGQFPGVCWDDTAKTMFRIPWKHAGKQDFREDQDAAFFKAWAIFKGKYKEGDTGGPAVWKTRLRCALNKSSEFKEVPERGRMDVAEPYKVYQLLPPGIVSGQPGTQKVPSKRQHSSVSSERKEEEDAMQNCTLSPSVLQDSLNNEEEGASGGAVHSDIGSSSSSSSPEPQEVTDTTEAPFQGDQRSLEFLLPPEPDYSLLLTFIYNGRVVGEAQVQSLDCRLVAEPSGSESSMEQVLFPKPGPLEPTQRLLSQLERGILVASNPRGLFVQRLCPIPISWNAPQAPPGPGPHLLPSNECVELFRTAYFCRDLVRYFQGLGPPPKFQVTLNFWEESHGSSHTPQNLITVKMEQAFARYLLEQTPEQQAAILSLV

What was measured:
Myc-tagged KPNA1 = Myc-tagged KPNA1 (UniProt P52294); assay: co-IP; HEK293 co-transfected with Myc-KPNA1 and Vec (HA) or HA-NS5, IFN-α 1,000 U/mL 30 min; IP with anti-Myc, IB with KPNB1 antibody
Myc-STAT1, P42224 = molecular target: T1, Myc-STAT1, P42224; assay: co-IP; HeLa or HEK293 co-transfected with Myc-STAT1 and Vec (HA) or HA-NS5, IFN-α 1,000 U/mL 30 min; IP with Myc-tag antibody, IB with pSTAT2 and IRF9 antibodies; conditions: remark: other sources report otherwise
T1 chain: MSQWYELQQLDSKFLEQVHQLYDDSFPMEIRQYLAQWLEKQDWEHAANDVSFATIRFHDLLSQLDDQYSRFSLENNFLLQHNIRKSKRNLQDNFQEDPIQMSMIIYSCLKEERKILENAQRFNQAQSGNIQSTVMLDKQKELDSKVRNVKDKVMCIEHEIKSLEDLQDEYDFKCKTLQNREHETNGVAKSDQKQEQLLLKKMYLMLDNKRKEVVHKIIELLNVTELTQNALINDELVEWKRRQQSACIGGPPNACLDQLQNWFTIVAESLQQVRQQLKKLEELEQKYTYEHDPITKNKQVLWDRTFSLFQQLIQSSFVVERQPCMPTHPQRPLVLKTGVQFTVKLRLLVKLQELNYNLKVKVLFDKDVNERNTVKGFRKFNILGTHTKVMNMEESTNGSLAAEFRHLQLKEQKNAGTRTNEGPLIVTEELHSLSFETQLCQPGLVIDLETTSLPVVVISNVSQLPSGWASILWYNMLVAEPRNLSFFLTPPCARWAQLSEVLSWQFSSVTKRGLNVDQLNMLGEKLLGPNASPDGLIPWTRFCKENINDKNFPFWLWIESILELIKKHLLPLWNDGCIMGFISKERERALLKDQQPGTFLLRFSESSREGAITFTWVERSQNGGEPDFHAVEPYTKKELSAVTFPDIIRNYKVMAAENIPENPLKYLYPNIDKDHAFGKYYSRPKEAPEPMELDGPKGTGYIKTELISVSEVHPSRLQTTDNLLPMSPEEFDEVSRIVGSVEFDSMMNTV

| Molecule | binding (Myc-tagged KPNA1) | binding (Myc-STAT1, P42224) |
| --- | --- | --- |
| KPNB1 (endogenous) (from UniProt Q14974 1-876) | binds |  |
| B1 |  | binds |
